PMC4258025
These are yes or no findings as the source states them, for the method shown. In cells and extracts the contact can be indirect. Some entries that bind do so weakly or less than the wild type.

The chains behind the UniProt entries cited, without tags or fusion partners. Where a name states a change or a piece, a line headed by the entry shows the natural chain unless it says otherwise.
UniProt Q13485: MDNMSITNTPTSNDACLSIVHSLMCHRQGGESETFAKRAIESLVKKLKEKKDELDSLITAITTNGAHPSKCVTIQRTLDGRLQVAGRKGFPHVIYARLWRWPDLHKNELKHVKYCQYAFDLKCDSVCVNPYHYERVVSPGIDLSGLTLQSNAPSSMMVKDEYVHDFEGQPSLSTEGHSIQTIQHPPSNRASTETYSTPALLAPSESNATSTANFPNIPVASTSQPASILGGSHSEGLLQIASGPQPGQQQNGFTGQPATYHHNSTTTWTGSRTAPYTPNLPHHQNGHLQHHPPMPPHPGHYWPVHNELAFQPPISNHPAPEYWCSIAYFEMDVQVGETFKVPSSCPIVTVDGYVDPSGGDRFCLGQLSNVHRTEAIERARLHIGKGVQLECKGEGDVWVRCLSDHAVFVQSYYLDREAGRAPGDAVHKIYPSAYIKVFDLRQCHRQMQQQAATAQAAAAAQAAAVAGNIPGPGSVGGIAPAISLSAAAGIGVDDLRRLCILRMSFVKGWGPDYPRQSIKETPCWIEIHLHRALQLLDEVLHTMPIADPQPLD
UniProt Q96EB6: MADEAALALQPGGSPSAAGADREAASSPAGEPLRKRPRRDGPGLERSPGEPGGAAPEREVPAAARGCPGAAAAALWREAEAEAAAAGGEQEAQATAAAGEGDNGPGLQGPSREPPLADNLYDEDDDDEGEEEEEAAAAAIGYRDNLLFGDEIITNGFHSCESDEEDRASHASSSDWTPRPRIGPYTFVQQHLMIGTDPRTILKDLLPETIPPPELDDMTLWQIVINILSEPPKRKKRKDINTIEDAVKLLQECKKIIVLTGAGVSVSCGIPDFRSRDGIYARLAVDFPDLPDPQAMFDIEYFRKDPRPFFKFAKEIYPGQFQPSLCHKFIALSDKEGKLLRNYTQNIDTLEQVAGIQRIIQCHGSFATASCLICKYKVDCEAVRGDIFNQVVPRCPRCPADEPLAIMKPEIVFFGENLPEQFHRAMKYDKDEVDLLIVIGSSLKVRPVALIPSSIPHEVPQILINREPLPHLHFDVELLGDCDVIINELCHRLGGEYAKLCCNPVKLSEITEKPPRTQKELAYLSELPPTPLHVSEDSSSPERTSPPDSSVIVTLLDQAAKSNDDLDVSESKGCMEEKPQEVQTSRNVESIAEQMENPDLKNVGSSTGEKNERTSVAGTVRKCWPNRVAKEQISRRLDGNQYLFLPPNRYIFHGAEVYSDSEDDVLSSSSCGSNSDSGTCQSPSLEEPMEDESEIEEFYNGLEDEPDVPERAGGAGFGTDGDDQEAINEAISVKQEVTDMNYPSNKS

What was measured:
[1] = target: Smad4 (human (endogenous in OECM1 and HSC3)) (UniProt Q13485); assay: co-IP; nuclear extracts of OECM1 and HSC3 cells, lysed with RIPA buffer; 2 mg protein immunoprecipitated with a SIRT1 or Smad4 antibody (Pierce Crosslink IP Kit); western blot for Smad2, Smad4 and SIRT1; endogenous proteins
[2] = target: sirtuin1 (SIRT1) (human (endogenous in OECM1 and HSC3)) (UniProt Q96EB6); assay: as above

| binding [1] | binding [2] | Substance |
| --- | --- | --- |
| binds | – | sirtuin1 (SIRT1) (from UniProt Q96EB6-1 1-747) (enzyme) |
| – | binds | Smad4 (from UniProt Q13485 1-552) |
